Assay [1] relates to HCC1937. Kind of assay: relative cell viability, compound + erastin, vs DMSO (fraction of DMSO control); higher = less growth inhibition. As to conditions: 72 h.
The test system of assay [2] is MDA-MB-231. The assay is described as above. As to conditions: 72 h.

The record followed here is the supplement of paper PMC9492666.

Structures are written as SMILES. This is a selection; strong and weak results do not stand in their true shares.
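Also: viability read by CCK-8 kit in 96-well plates, part of a combination screen pairing lipid-metabolism-targeting compounds with erastin.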

Turning to `Cc1c(C(=O)NN2CCCCC2)nn(-c2ccc(Cl)cc2Cl)c1-c1ccc(I)cc1` + CCOc1ccccc1-n1c(C(C)N2CCN(C(=O)COc3ccc(Cl)cc3)CC2)nc2ccccc2c1=O [erastin], the relative cell viability worked out at 0.402 in assay [1] and 0.459 in assay [2].
